{
  "sequences": {"note": "Amino acid sequences for entries named in this document (tags omitted). A change or cut given only in a name is not applied to a line headed by its entry.", "UniProt O75223": "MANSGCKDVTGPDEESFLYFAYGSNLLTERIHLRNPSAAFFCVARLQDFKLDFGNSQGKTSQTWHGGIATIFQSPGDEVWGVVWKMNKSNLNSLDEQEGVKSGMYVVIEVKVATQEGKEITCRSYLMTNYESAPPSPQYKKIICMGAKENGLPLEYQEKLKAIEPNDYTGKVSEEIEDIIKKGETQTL", "UniProt Q06210": "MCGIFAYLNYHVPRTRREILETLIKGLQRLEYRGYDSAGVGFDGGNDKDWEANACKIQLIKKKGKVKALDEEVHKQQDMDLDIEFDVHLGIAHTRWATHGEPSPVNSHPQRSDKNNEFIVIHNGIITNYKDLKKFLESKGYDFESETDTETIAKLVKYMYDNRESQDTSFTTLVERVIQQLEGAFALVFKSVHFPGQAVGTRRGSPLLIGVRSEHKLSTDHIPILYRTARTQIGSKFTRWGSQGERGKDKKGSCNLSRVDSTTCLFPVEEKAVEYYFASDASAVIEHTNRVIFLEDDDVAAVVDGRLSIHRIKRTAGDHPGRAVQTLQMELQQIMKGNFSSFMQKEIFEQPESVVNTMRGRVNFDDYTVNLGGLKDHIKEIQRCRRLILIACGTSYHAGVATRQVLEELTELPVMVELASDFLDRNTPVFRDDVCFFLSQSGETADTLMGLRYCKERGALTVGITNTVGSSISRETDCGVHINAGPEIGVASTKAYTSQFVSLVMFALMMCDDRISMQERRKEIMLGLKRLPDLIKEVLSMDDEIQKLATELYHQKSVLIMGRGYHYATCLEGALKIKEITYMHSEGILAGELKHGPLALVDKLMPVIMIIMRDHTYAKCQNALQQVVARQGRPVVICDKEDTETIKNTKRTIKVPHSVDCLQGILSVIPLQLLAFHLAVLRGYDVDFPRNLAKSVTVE", "UniProt P31995": "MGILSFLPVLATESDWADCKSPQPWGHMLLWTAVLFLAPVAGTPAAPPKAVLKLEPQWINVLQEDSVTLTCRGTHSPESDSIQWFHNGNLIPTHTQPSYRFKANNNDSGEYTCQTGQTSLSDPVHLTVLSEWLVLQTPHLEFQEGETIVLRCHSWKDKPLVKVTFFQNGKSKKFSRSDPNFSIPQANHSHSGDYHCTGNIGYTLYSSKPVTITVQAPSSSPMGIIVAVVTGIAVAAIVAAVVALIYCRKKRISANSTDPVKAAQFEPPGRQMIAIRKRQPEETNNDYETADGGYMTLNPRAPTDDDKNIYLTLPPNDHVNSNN", "UniProt Q14697": "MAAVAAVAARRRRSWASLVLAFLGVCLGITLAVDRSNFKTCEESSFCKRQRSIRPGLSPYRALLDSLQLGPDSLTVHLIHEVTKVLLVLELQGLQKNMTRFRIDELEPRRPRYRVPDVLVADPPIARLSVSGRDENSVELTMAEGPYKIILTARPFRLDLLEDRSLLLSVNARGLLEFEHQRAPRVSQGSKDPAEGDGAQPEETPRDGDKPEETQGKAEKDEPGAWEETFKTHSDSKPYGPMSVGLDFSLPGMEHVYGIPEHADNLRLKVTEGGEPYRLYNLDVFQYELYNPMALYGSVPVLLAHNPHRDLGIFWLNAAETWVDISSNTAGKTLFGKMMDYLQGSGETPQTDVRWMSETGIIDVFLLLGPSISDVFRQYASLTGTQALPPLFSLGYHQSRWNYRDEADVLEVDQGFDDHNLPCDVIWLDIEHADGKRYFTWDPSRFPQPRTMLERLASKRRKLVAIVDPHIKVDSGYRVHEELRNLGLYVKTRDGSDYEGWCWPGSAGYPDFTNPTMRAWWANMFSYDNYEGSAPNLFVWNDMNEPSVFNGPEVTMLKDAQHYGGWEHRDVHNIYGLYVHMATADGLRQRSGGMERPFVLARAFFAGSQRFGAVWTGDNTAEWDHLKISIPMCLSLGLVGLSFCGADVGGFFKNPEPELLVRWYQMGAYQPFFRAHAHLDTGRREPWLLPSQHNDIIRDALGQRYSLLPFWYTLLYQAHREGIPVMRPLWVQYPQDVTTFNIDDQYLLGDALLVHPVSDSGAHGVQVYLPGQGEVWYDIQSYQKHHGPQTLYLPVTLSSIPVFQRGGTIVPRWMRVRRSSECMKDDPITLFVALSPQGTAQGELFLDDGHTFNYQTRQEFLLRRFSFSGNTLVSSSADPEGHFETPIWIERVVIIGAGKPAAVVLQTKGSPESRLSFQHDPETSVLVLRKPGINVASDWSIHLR", "UniProt Q68CQ7": "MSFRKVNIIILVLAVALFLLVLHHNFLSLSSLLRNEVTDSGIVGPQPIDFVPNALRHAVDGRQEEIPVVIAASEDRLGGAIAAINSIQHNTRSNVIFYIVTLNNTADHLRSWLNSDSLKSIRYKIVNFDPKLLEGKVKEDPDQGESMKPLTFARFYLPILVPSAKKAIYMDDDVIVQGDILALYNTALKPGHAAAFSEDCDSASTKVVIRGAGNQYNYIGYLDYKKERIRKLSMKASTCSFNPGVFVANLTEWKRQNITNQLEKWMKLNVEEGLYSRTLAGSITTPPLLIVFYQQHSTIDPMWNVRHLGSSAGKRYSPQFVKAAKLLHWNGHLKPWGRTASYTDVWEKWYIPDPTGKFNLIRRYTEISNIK", "UniProt A0FGR8": "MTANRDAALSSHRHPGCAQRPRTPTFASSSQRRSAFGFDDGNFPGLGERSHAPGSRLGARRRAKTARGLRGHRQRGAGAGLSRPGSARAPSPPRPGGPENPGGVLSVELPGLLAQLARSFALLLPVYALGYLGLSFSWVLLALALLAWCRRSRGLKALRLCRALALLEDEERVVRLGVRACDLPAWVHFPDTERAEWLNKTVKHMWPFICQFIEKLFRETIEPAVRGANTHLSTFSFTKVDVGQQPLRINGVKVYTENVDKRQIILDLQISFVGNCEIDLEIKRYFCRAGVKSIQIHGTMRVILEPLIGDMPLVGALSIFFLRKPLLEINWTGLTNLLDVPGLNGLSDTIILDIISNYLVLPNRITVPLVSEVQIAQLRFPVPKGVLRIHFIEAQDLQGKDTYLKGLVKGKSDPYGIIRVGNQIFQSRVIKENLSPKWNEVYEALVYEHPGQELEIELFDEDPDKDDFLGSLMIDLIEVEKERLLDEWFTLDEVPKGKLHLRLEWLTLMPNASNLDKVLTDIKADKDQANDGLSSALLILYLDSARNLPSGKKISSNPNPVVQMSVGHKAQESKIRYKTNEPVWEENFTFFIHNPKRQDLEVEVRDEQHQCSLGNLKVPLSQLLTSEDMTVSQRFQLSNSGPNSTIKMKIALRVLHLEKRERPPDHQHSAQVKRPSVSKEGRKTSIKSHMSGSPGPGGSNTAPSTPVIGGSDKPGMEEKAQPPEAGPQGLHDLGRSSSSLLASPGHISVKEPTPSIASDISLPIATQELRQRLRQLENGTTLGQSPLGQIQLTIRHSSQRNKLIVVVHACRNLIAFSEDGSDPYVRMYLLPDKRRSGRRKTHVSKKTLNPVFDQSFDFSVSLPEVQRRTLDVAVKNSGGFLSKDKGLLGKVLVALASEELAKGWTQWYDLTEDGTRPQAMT", "UniProt Q96IG2": "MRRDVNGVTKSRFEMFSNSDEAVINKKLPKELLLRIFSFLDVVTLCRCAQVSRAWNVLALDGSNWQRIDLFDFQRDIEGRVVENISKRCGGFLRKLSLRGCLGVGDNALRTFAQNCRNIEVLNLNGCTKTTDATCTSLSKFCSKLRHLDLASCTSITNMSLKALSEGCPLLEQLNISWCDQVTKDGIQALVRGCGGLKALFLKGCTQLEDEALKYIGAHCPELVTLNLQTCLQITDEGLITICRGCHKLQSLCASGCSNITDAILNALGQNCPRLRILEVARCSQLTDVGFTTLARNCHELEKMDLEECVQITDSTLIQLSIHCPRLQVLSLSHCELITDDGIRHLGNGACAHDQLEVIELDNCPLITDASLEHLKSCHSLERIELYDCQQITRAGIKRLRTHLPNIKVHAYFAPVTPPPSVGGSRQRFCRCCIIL", "UniProt P25445, whole entry": "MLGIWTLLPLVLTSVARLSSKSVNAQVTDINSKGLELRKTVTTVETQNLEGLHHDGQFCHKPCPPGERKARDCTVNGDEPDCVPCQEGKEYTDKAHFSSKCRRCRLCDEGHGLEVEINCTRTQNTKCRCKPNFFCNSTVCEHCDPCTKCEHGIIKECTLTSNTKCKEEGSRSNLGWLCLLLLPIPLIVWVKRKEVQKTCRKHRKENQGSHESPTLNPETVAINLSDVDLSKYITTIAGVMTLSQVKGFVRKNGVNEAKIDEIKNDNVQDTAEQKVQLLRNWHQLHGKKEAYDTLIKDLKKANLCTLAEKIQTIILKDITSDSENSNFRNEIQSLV", "UniProt P07902": "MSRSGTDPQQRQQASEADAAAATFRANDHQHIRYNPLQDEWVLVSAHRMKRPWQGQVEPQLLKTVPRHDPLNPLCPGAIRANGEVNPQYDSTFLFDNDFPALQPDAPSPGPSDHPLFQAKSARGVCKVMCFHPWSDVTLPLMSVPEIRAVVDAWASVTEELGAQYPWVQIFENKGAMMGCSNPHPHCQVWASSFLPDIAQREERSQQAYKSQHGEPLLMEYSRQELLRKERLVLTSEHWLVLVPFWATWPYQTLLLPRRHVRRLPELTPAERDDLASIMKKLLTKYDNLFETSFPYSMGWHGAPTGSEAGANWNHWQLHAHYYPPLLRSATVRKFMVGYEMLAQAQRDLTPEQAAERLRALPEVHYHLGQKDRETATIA", "UniProt P50148, whole entry": "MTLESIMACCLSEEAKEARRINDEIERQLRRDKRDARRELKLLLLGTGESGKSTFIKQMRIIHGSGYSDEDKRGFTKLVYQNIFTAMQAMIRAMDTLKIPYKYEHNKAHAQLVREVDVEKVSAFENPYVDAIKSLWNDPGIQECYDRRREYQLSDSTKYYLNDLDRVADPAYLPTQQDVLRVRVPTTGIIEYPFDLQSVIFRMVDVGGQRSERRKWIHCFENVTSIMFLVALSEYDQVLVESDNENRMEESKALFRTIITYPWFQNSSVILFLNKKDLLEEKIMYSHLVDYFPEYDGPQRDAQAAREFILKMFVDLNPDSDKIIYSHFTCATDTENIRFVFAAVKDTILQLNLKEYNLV", "UniProt Q92990": "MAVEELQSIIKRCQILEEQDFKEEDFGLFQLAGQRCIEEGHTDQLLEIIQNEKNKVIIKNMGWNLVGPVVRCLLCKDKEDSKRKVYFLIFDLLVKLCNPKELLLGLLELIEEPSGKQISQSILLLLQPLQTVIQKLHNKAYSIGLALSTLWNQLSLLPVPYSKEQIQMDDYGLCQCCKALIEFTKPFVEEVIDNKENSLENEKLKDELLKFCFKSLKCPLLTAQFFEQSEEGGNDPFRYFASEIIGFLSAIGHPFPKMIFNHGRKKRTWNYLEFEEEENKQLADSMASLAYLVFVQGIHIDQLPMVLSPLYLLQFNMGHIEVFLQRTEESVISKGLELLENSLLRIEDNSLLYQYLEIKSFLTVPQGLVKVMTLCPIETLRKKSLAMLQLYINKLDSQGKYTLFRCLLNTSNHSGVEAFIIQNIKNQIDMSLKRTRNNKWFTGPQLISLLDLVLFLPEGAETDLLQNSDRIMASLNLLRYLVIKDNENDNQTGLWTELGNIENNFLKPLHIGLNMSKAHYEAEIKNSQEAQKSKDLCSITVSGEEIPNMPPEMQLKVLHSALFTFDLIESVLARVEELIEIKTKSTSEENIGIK", "UniProt Q9Y2X7": "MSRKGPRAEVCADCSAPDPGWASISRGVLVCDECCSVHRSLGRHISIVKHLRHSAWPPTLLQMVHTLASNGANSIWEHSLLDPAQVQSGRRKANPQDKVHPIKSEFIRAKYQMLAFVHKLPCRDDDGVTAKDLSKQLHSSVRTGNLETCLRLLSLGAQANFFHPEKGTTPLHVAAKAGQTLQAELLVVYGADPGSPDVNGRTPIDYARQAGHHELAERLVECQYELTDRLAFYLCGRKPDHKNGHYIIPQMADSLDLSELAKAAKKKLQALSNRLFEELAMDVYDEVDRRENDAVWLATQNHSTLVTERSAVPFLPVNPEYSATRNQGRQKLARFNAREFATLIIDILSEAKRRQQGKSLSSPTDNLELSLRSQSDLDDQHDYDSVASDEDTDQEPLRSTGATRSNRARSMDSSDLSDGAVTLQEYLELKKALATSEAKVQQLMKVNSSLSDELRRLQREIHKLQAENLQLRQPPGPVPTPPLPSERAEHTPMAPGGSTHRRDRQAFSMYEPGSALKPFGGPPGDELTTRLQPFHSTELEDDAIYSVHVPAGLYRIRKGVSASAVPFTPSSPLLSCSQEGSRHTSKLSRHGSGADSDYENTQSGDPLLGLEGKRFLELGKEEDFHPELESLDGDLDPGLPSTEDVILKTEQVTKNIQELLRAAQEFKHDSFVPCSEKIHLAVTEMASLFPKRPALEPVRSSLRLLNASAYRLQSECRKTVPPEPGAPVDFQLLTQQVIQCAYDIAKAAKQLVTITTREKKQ", "UniProt O75494": "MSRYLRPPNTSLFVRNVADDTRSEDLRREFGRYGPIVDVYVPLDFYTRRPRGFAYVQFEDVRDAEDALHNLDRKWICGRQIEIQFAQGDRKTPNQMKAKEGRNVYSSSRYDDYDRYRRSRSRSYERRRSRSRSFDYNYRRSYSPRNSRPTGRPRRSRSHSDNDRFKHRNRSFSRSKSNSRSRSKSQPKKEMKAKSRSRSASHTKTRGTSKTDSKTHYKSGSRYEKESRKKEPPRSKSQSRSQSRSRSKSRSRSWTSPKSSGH"},
  "source": "the supplement of paper PMC7666118",
  "note": "The list shows a part of the results.",
  "data": [
    {"compound": "COc1ccc(Cn2ccc3cc(C)c(C(=O)NO)cc32)cc1", "experiment": "dose-dependent thermal stabilisation call (2D-TPP, DLPTP, 10% FDR) (binary (1 = stabilised)); higher = stabilised by the compound", "settings": "system: HL-60 intact cells; concentration range 0.04-10 µM", "experimental": "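2D thermal proteome profiling in intact HL-60 cells treated with BRD-3811 (0, 0.04, 0.29, 2, 10 uM) for 90 min at 37 C, then heated 3 min at one of 12 temperatures (42-63.9 C). Soluble protein was quantified by TMT10 MS. The value is the DLPTP call of the paper: dose-dependent thermal stabilisation over all temperatures at 10% FDR (F-test of a dose-response against a flat model); one experiment, one call per tested protein.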", "values": [
      {"target": "GCS1 (UniProt Q13724)", "dose-dependent thermal stabilisation call": "inactive: 0"},
      {"target": "GIPC1 (UniProt O14908)", "dose-dependent thermal stabilisation call": "inactive: 0"},
      {"target": "GGCT (UniProt O75223)", "dose-dependent thermal stabilisation call": "inactive: 0"},
      {"target": "GALNT14 (UniProt Q96FL9)", "dose-dependent thermal stabilisation call": "inactive: 0"},
      {"target": "FLOT1 (UniProt O75955)", "dose-dependent thermal stabilisation call": "inactive: 0"},
      {"target": "FGFR1 (UniProt P11362)", "dose-dependent thermal stabilisation call": "inactive: 0"},
      {"target": "GFPT1 (UniProt Q06210)", "dose-dependent thermal stabilisation call": "active: 1"},
      {"target": "FAM76B (UniProt Q5HYJ3)", "dose-dependent thermal stabilisation call": "inactive: 0"},
      {"target": "GBE1 (UniProt Q04446)", "dose-dependent thermal stabilisation call": "inactive: 0"},
      {"target": "FCGR2C (UniProt P31995)", "dose-dependent thermal stabilisation call": "inactive: 0"},
      {"target": "G3BP2 (UniProt Q9UN86)", "dose-dependent thermal stabilisation call": "inactive: 0"},
      {"target": "FAM98B (UniProt Q52LJ0)", "dose-dependent thermal stabilisation call": "inactive: 0"},
      {"target": "GANAB (UniProt Q14697)", "dose-dependent thermal stabilisation call": "inactive: 0"},
      {"target": "GDI2 (UniProt P50395)", "dose-dependent thermal stabilisation call": "inactive: 0"},
      {"target": "GLT8D1 (UniProt Q68CQ7)", "dose-dependent thermal stabilisation call": "inactive: 0"},
      {"target": "GADD45GIP1 (UniProt Q8TAE8)", "dose-dependent thermal stabilisation call": "inactive: 0"},
      {"target": "FAM62B (UniProt A0FGR8)", "dose-dependent thermal stabilisation call": "inactive: 0"},
      {"target": "FKRP (UniProt Q9H9S5)", "dose-dependent thermal stabilisation call": "inactive: 0"},
      {"target": "FBXL20 (UniProt Q96IG2)", "dose-dependent thermal stabilisation call": "inactive: 0"},
      {"target": "FRYL (UniProt O94915)", "dose-dependent thermal stabilisation call": "inactive: 0"},
      {"target": "FRY (UniProt Q5TBA9)", "dose-dependent thermal stabilisation call": "inactive: 0"},
      {"target": "FAS (UniProt P25445)", "dose-dependent thermal stabilisation call": "inactive: 0"},
      {"target": "GALT (UniProt P07902)", "dose-dependent thermal stabilisation call": "inactive: 0"},
      {"target": "FKSG24 (UniProt Q567V2)", "dose-dependent thermal stabilisation call": "inactive: 0"},
      {"target": "GALNT7 (UniProt Q86SF2)", "dose-dependent thermal stabilisation call": "inactive: 0"},
      {"target": "GLRX5 (UniProt Q86SX6)", "dose-dependent thermal stabilisation call": "inactive: 0"},
      {"target": "GMIP (UniProt Q9P107)", "dose-dependent thermal stabilisation call": "inactive: 0"},
      {"target": "GNAQ (UniProt P50148)", "dose-dependent thermal stabilisation call": "inactive: 0"},
      {"target": "G6PD (UniProt P11413)", "dose-dependent thermal stabilisation call": "inactive: 0"},
      {"target": "GLMN (UniProt Q92990)", "dose-dependent thermal stabilisation call": "inactive: 0"},
      {"target": "GBA (UniProt P04062)", "dose-dependent thermal stabilisation call": "inactive: 0"},
      {"target": "GIT1 (UniProt Q9Y2X7)", "dose-dependent thermal stabilisation call": "inactive: 0"},
      {"target": "GARS (UniProt P41250)", "dose-dependent thermal stabilisation call": "inactive: 0"},
      {"target": "GMPS (UniProt P49915)", "dose-dependent thermal stabilisation call": "inactive: 0"},
      {"target": "FLG (UniProt P20930)", "dose-dependent thermal stabilisation call": "inactive: 0"},
      {"target": "FUSIP1 (UniProt O75494)", "dose-dependent thermal stabilisation call": "inactive: 0"}
    ]}
  ]
}
